{"sequences": {"note": "The chains behind the UniProt entries cited, without tags or fusion partners.", "UniProt P06787": "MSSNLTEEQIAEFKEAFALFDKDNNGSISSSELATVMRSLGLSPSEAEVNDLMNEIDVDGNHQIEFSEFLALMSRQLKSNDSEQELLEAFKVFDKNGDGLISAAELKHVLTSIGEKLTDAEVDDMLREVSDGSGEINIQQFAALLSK"}, "source": "paper PMC8449268", "about": "“Activity of the yeast vacuolar TRP channel TRPY1 is inhibited by Ca^2+–calmodulin binding” (The Journal of Biological Chemistry, 2021)", "key": {"[1]": {"target": "T1, MBP-TRPY1-C (cytosolic C terminus of TRPY1 fused to maltose-binding protein) (S. cerevisiae) (UniProt Q12324)", "T1 sequence": "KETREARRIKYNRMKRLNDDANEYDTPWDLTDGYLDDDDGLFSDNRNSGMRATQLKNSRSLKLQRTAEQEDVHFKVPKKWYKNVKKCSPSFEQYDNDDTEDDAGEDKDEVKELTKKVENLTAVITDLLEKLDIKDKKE", "test": "pull-down; MBP-fused TRPY1 fragments (12 ug) immobilised on amylose resin, incubated with 12 ug GST fusion proteins in the absence of Ca2+ (5 mM EGTA), 60 min, 4 °C; anti-GST blot; both purified"}, "[2]": {"target": "T2, TRPY1 C-terminal peptides of the peptide scan covering residues 607–631 (S. cerevisiae) (UniProt Q12324)", "T2 sequence (peptide)": "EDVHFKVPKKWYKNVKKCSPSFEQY", "test": "peptide or protein array; 20-mer TRPY1 peptides shifted by five residues on cellulose membrane (16 nmoles per spot); ^14C-GST-Cmd1 (60 cpm per spot) in 50 mM Tris pH 7.5, 150 mM NaCl, 0.1% Triton X-100, 2 mM CaCl2, 4 °C, 16 h; autoradiography; both purified"}, "[3]": {"target": "T3, TRPY1 N-terminal peptides of the peptide scan covering residues 28 to 52 (S. cerevisiae) (UniProt Q12324)", "T3 sequence (peptide)": "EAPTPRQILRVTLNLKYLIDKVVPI", "test": "peptide or protein array; 20-mer TRPY1 peptides shifted by five residues on cellulose membrane (16 nmoles per spot); ^14C-GST-Cmd1 (60 cpm per spot) in 50 mM Tris pH 7.5, 150 mM NaCl, 0.1% Triton X-100, 2 mM CaCl2, 4 °C, 16 h; autoradiography; both purified"}, "[4]": {"target": "T4, TRPY1 N-terminal peptides of the peptide scan covering residues 68 to 92 (S. cerevisiae) (UniProt Q12324)", "T4 sequence (peptide)": "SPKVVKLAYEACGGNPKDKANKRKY", "test": "peptide or protein array; 20-mer TRPY1 peptides shifted by five residues on cellulose membrane (16 nmoles per spot); ^14C-GST-Cmd1 (60 cpm per spot) in 50 mM Tris pH 7.5, 150 mM NaCl, 0.1% Triton X-100, 2 mM CaCl2, 4 °C, 16 h; autoradiography; both purified"}}, "note": "No constants are given. Whether binding was seen depends on the method and setting. Some entries that bind do so weakly or less than the wild type. For some of these results: Tags and fused reporters may be left off the sequences shown.", "data": [{"substance": "GST-Cmd1 (yeast calmodulin fused to glutathione-S-transferase) (from UniProt P06787 1-147)", "values": [{"measurement": "binding", "setting": "[1]", "result": "no binding (condition: without Ca2+ (5 mM EGTA))"}, {"measurement": "binding", "setting": "[2]", "result": "binds"}, {"measurement": "binding", "setting": "[3]", "result": "binds"}, {"measurement": "binding", "setting": "[4]", "result": "binds"}]}]}
